For some assays here: No signal at the amounts used counts as a negative. For some assays here: At least one verdict rests on a figure or table, not on a statement of the authors. For some assays here: The comparison behind a weaker result is the experiment's own reference, which may not be listed here. For some assays here: For at least one entry, the source does not settle the construct or the ends of the probe.
Experiments:
[1] = test system: tauN (N-terminal region) (human); assay: EMSA; conditions: same conditions as Fig 7; 20 mM Tris pH 7.2, 50 mM NaCl, 0.5 mM DTT, 1 mM MgCl2, 0.5 mM EDTA, room temperature 20-30 min; native PAGE in 1xTBE (20% gel at 4 C, or 8% for the 26 bp assay); recombinant protein; residues 1-113; protein details: C-terminal His-tag
[2] = test system: tauPro (proline-rich domain) (human); assay: EMSA; conditions: shift at [protein]/[DNA] 2/1 or higher, 2.5 uM DNA; 20 mM Tris pH 7.2, 50 mM NaCl, 0.5 mM DTT, 1 mM MgCl2, 0.5 mM EDTA, room temperature 20-30 min; native PAGE in 1xTBE (20% gel at 4 C, or 8% for the 26 bp assay); recombinant protein; residues 114-193; protein details: C-terminal His-tag
[3] = test system: tauMTBD (microtubule-binding domain) (human); assay: EMSA; conditions: marked shift at about four times the tau23 ratio, 2.5 uM DNA; 20 mM Tris pH 7.2, 50 mM NaCl, 0.5 mM DTT, 1 mM MgCl2, 0.5 mM EDTA, room temperature 20-30 min; native PAGE in 1xTBE (20% gel at 4 C, or 8% for the 26 bp assay); recombinant protein; residues 198-278; protein details: C-terminal His-tag
[4] = test system: tauC (C-terminal region) (human); assay: EMSA; conditions: same conditions as Fig 7; 20 mM Tris pH 7.2, 50 mM NaCl, 0.5 mM DTT, 1 mM MgCl2, 0.5 mM EDTA, room temperature 20-30 min; native PAGE in 1xTBE (20% gel at 4 C, or 8% for the 26 bp assay); recombinant protein; residues 279-352; protein details: C-terminal His-tag
tau23 (human) [5] = assay: EMSA; conditions: [tau]/[bp] 1/10; 20 mM Tris pH 7.2, 50 mM NaCl, 0.5 mM DTT, 1 mM MgCl2, 0.5 mM EDTA, room temperature 20-30 min; native PAGE in 1xTBE (20% gel at 4 C, or 8% for the 26 bp assay); recombinant protein; residues 1-352
tau23 (human) [6] = assay: competition EMSA; conditions: distamycin A, [distamycin A]/[DNA] 5/3 and above, [tau]/[DNA] 1/3; 20 mM Tris pH 7.2, 50 mM NaCl, 0.5 mM DTT, 1 mM MgCl2, 0.5 mM EDTA, room temperature 20-30 min; native PAGE in 1xTBE (20% gel at 4 C, or 8% for the 26 bp assay); recombinant protein; residues 1-352

Chains of the proteins cited; added tags and fusions are not shown. Chains listed by the source or under a name are the forms on record and can include a tag or linker.
tauMTBD (microtubule-binding domain) (human), one chain, as listed by the source: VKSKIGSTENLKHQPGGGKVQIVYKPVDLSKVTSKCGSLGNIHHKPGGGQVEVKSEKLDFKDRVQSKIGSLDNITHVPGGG
tauN (N-terminal region) (human), one chain, as listed by the source: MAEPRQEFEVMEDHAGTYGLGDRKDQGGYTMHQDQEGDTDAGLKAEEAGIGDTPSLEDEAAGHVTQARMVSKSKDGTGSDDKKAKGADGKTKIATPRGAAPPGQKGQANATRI
tau23 (human), one chain, as listed by the source: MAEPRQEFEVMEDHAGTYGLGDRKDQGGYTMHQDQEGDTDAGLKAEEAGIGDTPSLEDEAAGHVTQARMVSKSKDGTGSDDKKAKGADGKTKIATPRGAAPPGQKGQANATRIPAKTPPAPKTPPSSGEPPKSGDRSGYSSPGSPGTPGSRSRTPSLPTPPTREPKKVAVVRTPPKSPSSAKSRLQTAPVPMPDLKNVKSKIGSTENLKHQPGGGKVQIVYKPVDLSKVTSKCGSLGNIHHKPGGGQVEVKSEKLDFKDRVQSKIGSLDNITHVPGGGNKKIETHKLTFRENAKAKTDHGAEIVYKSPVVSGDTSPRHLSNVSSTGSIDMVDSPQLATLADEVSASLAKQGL

AACGAGAAGCGCGATCACAT (double strand) [20 bp DNA]
binding result [1]: no binding
binding result [2]: binds more weakly
binding result [3]: binds more weakly
binding result [4]: no binding

GCTCCGTGCATAAATAATAGGC / CGAGCCTATTATTTATGCACGGAG [21 bp DNA]
binding result (tau23 (human) [5]): binds

ACTCCGTGCATAAATAATAGGCACTCG / CCGAGTGCCTATTATTTATGCACGGAG [26 bp DNA]
binding result (tau23 (human) [6]): binds more weakly

ACTCCGTGCATAAATAA / TTATTTATGCACGGAG [16 bp DNA]
binding result (tau23 (human) [5]): binds

ATCCGTGCATAAATAA / CTTATTTATGCACGGA [15 bp DNA]
binding result (tau23 (human) [5]): binds

— publication PMC2432501
